In PubChem BioAssay AID493014 (National Center for Advancing Translational Sciences (NCATS), 2011):
About 170 (0.05%) of roughly 340,000 compounds were called active. The shares of active, inactive and inconclusive entries below differ from those in the screen. Calls follow the shape of the dose curve; as a rule, active = well fitted inhibition curve with a large enough effect in the signal ratio, with a control signal flat (not every such curve was filed as active); inconclusive = small, poorly fitted or top-dose-only effect, or effect the other way, or a change in a side signal; inactive = flat fitted curve, though single readings scatter; the % refers to the signal ratio. Where the call is inconclusive, the potency comes from a doubtful curve fit.
Potency is read from the fitted curve at half-maximal effect.

Test: qHTS Assay to Find Inhibitors of Chronic Active B-Cell Receptor Signaling;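 as to activity change, negative = inhibition: plate controls were basal doxycycline-induced cells for no effect and cells given 10 µM MG132 for full effect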
Conditions: ABC-DLBCL IkBa-CBG/CBR reporter, luminescence ratio (green luciferase fused to IkBa over red control in TMD8 lymphoma cells), 4 h; activity change, negative = inhibition: at 46.1 µM (top of the series) unless noted
Summary of the method: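 Concentration-response series (up to 46 uM) were applied to TMD8 dual-reporter cells for 4 h at 37C with doxycycline. Green/red ratio, after filter-overlap correction, defined %Activity; red signal alone was normalised to basal cells and zero luminescence.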
For CC(C)N(C(=O)CSc1nnc(-c2ccc3c(c2)OCO3)n1C)C(C)C, the “activity change, negative = inhibition” value was inactive: 5.55%.
In the case of O=C(COc1ccccc1Br)NCc1ccccn1, the Potency is reported as inconclusive: 1.3 µM [rising, full curve, poor fit].
In the case of Cc1c(-c2ccccc2)oc2c(C(=O)N3CCN(c4ccccc4F)CC3)cccc2c1=O, the “activity change, negative = inhibition” value is reported as inactive: -0.521%.
In the case of COCC(=O)Nc1nc2ccc(S(C)(=O)=O)cc2s1, the activity change, negative = inhibition is reported as inconclusive: 6.65%.
For CC(C)(C)OC(=O)N1CCC[C@H]1c1nnc(SCc2ccccc2F)o1, the activity change, negative = inhibition was inconclusive: 4.38%.
In the case of CC(=O)Nc1ccc(S(=O)(=O)NC2=C(N3CCN(Cc4ccccc4)CC3)C(=O)c3ccccc3C2=O)cc1, the activity change, negative = inhibition is reported as inconclusive: 20.1%.
With O=C(Nc1nccs1)c1ccc(COc2ccccc2)o1 the “activity change, negative = inhibition” value was inactive: 7.56%.
With O=C1C2CC=CCC2C(=O)N1Cc1nnc(-c2ccc(Cl)cc2)o1 (stereo unspecified) the activity change, negative = inhibition was inconclusive: 0.668%.
For O=C(CCl)Nc1cc(S(=O)(=O)N2CCCCCC2)ccc1Cl, the Potency was inconclusive: 20.6 µM [falling, single point].
In the case of Cc1c(C(=O)NCC(C)C)sc2nc(-c3ccc(F)cc3)cn12, the activity change, negative = inhibition is reported as inconclusive: 14.4%.
With CN(Cc1ccc(F)cc1)S(=O)(=O)c1nnc(NC(=O)c2ccccc2)s1 the Potency was inconclusive: 12.6 µM [rising, partial curve, poor fit].
In the case of CCCNC(=O)C1CCC(CNS(=O)(=O)c2ccc3c(c2)CC(C)N3C(C)=O)CC1 (stereo unspecified), the “activity change, negative = inhibition” value is reported as inactive: 1.37%.
With COCCOC(=O)c1c(NC(=O)CNc2ccc(C)c(F)c2)sc(C(N)=O)c1C the activity change, negative = inhibition was inconclusive: 8.24%.
With O=C(COc1ccccc1)N/N=C/c1cc2c(cc1[N+](=O)[O-])OCO2 the activity change, negative = inhibition was inconclusive: -10.4%.
For O=C(c1ccc(Cn2cc(Br)cn2)cc1)N1N=C(C(F)F)CC1(O)C(F)F (stereo unspecified), the activity change, negative = inhibition was inconclusive: -0.249%.
With CCOc1nc(OCC)nc(N2CCC(C)CC2)n1 the Potency was inconclusive: 16.4 µM [falling, single point].
With Cc1ccc(C(=O)Nc2cccc(C(=O)NC3CCCC3)c2)cc1 the activity change, negative = inhibition was inconclusive: 1.94%.
With COc1ccc(Cc2nnc(NC(=O)Cn3cnc4c3c(=O)n(C)c(=O)n4C)s2)cc1 the Potency was inconclusive: 18.4 µM [falling, partial curve].
With Cc1ccc(C)c(C(=O)C(C)OC(=O)CN2C(=O)NC3(CC(C)CC(C)(C)C3)C2=O)c1 (stereo unspecified) the “activity change, negative = inhibition” value was inactive: -0.377%.
For CCOC(=O)c1nc(N)c(=O)n(-c2ccccc2)n1, the activity change, negative = inhibition was inconclusive: -2.91%.
In the case of C=CCN(C(=O)CSc1nnnn1C)c1nc(-c2ccccc2)cs1, the activity change, negative = inhibition is reported as inconclusive: 12.3%.
For CCC(=O)c1ccc(OCCN2CCOCC2)cc1, the activity change, negative = inhibition was inconclusive: 8.15%.
In the case of O=C(Nc1ccccc1C(=O)NC(Cc1ccccc1)C(=O)O)c1ccccc1 (stereo unspecified), the Potency is reported as inconclusive: 35.5 µM [falling, single point].
With CCN(CC)S(=O)(=O)c1ccc(NC(=O)C(C)N(c2ccc(OC)cc2)S(C)(=O)=O)cc1 (stereo unspecified) the “activity change, negative = inhibition” value was inactive: 15.2%.
With CSc1ccc(/C=N/NC(=O)c2ccc(C)c(C)c2)cc1 the “activity change, negative = inhibition” value was inactive: 1.07%.
With CC(C)CCSc1nc(N)c(C#N)cc1C#N the “activity change, negative = inhibition” value was inactive: 3.97%.
In the case of Cc1ccc(C)c(NC(=O)c2cnn(-c3ccccc3)c2C)c1, the Potency is reported as inconclusive: 11.2 µM [falling, partial curve].
With Cc1cc(C)cc(N/C(N)=N/c2nc(C)cc(C)n2)c1 the activity change, negative = inhibition was inconclusive: -3.93%.
With C#CCOCCOCCOCCNc1nc(N2CCN(C(=O)[C@H](CCC(=O)O)n3cc([C@@H](N)[C@H](C)CC)nn3)CC2)nc(N2CCN(C(=O)[C@H](CCC(=O)O)n3cc([C@@H](N)CCSC)nn3)CC2)n1 the activity change, negative = inhibition was inconclusive: 0.245%.
For N#CCCN1CCN(C(=S)c2ccc(-c3ccc(Cl)cc3)o2)CC1, the activity change, negative = inhibition was inconclusive: 16.6%.
For O=C(OCCNc1ncc(C(F)(F)F)cc1Cl)c1ccc(S(=O)(=O)N2CCOCC2)cc1, the activity change, negative = inhibition was inconclusive: 6.5%.
With Cc1ccc(-c2ccccc2NC(=O)CCl)o1 the Potency was inconclusive: 14.1 µM [falling, partial curve].
In the case of O=[N+]([O-])c1ccc(Cl)cc1Sc1nc2ccccc2o1, the Potency is reported as inconclusive: 29.1 µM [falling, single point].
For CS/C(N)=N/N=C/c1ccc([N+](=O)[O-])cc1, the Potency was inconclusive: 35.5 µM [falling, single point].
In the case of Cc1ccc(-c2n[nH]c(=S)n2/N=C/c2cccs2)cc1, the activity change, negative = inhibition is reported as inconclusive: 9.58%.
For CCOC(=O)N1CCN(C(=O)c2cc3c(s2)-c2ccc(Cl)cc2S(=O)(=O)C3)CC1, the activity change, negative = inhibition was inconclusive: 25.1%.
With CCn1c2ccccc2c2cc(NC(=O)C/C(C)=N/NC(=O)c3ccccc3N)ccc21 the Potency was inconclusive: 25.1 µM [falling, single point].
For COCCN(Cc1cc2cc(C)ccc2nc1Cl)C(=O)Nc1ccccc1OC, the “activity change, negative = inhibition” value was inactive: -1.48%.
With CC(C)c1cccc(C(C)C)c1NC(=O)CN(C)C1CCS(=O)(=O)C1 (stereo unspecified) the “activity change, negative = inhibition” value was inactive: -0.763%.
In the case of O=C(Cc1c(F)cccc1Cl)N1CCOCC1, the activity change, negative = inhibition is reported as inconclusive: 10.1%.
With COc1cccc(CN2CCN(Cc3[nH]c4ccccc4c3C)CC2CCO)c1 (stereo unspecified) the Potency was inconclusive: 11.2 µM [falling, partial curve, poor fit].
In the case of O=C(COC(=O)Cc1ccsc1)Nc1ccc(Br)cc1F, the activity change, negative = inhibition is reported as inconclusive: -0.748%.
With COc1ccc(C(=O)OCCc2cc3ccccc3c(=O)o2)cc1 the activity change, negative = inhibition was inconclusive: -6.65%.
In the case of Cc1ccc(S(=O)(=O)C(CNC(=O)C(=O)NCCc2ccc(Cl)cc2)c2cccs2)cc1 (stereo unspecified), the activity change, negative = inhibition is reported as inconclusive: -1.42%.
With CCCCNC(=O)C1CCCN1C(=O)Nc1cccc(OC)c1 (stereo unspecified) the activity change, negative = inhibition was inconclusive: -0.666%.
With O=C(Nc1nc2ccccc2s1)C1CC(=O)N(c2ccc(Cl)cc2)C1 (stereo unspecified) the activity change, negative = inhibition was inconclusive: 9.72%.
With COc1ccc(CCNC(=O)C2CCN(S(=O)(=O)N3CC(C)CC(C)C3)CC2)cc1OC (stereo unspecified) the activity change, negative = inhibition was inconclusive: -2.05%.
For CCCS(=O)(=O)c1nnnn1-c1cccc(OC)c1, the activity change, negative = inhibition was inconclusive: 15.1%.
For Cc1ccc(Cl)c(OCC(=O)NN2CCN(C)CC2)c1, the activity change, negative = inhibition was inconclusive: 2.01%.
In the case of Cc1ccc(CNC(=O)CN2CCN(Cc3ccc(C)cc3)C2=O)cc1, the activity change, negative = inhibition is reported as inconclusive: -2.78%.
In the case of COCC(=O)N1CCC(Oc2ccc(C(=O)NC(C)c3csc(C)n3)cc2)CC1 (stereo unspecified), the “activity change, negative = inhibition” value is reported as inactive: 6.03%.
